Reference: the supplement of paper PMC12823440, “Inhibitors supercharge kinase turnover through native proteolytic circuits” (Nature, 2025)
Counter-ions that a name gives are not always drawn. This is one part of the list. The calls rarely recur for the same compound in another form.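 Kinases, fused to nanoluciferase, were expressed in K562 cells; luminescence was measured every 4 h from 2 to 18 h as percent of control (DMSO = 100%, positive control = 0%). A time point is decreased if signal falls significantly (2 sigma). Hits were called by the authors by a rule that is not shown; the count of time points alone does not decide it.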

Amino acid sequences for entries named in this document (tags omitted).
UniProt Q01974, whole entry: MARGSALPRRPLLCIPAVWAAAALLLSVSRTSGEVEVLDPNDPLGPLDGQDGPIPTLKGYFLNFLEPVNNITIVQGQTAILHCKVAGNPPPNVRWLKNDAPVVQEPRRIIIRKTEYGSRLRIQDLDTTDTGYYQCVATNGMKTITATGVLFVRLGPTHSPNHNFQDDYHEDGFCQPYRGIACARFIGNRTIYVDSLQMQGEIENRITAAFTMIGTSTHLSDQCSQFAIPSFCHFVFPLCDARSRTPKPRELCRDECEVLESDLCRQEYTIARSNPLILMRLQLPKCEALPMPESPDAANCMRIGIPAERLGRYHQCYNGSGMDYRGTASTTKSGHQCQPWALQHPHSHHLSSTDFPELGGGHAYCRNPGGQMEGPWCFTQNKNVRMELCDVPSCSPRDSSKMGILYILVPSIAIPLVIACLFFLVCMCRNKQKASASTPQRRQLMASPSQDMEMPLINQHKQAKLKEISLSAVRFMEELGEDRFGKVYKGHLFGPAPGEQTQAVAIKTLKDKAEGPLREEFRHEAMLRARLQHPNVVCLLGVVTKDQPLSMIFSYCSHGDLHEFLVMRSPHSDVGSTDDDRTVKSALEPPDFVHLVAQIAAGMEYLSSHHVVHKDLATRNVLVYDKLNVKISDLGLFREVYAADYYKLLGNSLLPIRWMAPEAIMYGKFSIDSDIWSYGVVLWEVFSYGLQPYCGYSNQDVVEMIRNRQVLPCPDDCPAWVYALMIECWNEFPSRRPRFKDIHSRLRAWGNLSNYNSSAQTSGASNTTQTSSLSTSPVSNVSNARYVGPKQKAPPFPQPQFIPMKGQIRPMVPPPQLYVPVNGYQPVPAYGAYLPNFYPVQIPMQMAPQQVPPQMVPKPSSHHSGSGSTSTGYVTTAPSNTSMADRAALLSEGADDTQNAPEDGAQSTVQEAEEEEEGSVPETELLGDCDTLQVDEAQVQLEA
UniProt Q15418, whole entry: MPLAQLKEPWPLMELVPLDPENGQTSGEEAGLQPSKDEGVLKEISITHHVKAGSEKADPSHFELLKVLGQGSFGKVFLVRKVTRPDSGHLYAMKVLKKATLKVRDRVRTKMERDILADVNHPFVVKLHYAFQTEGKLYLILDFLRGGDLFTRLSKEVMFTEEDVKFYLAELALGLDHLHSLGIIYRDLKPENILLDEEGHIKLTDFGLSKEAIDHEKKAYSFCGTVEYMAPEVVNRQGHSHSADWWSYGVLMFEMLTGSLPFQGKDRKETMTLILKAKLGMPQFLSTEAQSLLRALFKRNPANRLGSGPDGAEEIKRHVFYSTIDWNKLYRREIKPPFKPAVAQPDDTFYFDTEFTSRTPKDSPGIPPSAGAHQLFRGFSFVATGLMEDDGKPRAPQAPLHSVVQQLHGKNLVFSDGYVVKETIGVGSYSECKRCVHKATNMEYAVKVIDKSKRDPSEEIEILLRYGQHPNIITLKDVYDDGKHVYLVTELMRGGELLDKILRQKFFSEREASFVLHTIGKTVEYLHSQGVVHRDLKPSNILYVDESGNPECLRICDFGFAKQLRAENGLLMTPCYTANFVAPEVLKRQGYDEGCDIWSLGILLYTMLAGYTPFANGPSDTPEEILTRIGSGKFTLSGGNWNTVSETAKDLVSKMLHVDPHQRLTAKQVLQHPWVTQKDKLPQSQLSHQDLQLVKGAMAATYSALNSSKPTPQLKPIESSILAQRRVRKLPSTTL

biological target: ROR2 (UniProt Q01974); assay: kinase-Nluc reporter destabilization hit call (1 = scored as downregulated) (binary); higher = compound decreases kinase abundance; settings: K562; 2-18 h

kinase-Nluc reporter destabilization hit call, inactive:
CCc1c(C(=O)NNC(=O)C(O)c2cc(F)cc(F)c2)ccc(O)c1C (stereo unspecified) (10 µM) 0, CC(=O)c1c(C)cc2cccc(O)c2c1O [Nepodin] (10 µM) 0, Cc1c(-c2c(F)cc(C(N)=O)c3[nH]c4c(c23)CC[C@H](C(C)(C)O)C4)cccc1-n1c(=O)c2cccc(F)c2n(C)c1=O (2.5 µM) 0, CCc1cc2c(cc1N1CCC(N3CCOCC3)CC1)C(C)(C)c1[nH]c3cc(C#N)ccc3c1C2=O [Alectinib] (10 µM) 0, FC(F)c1nc2ccccc2n1-c1nc(N2CCOCC2)nc(N2CCOCC2)n1 (2 µM) 0, FC(F)(c1ccc2ncccc2c1)c1nnc2ccc(-c3ccncc3)nn12 (10 µM) 0, Cn1cc(-c2cnn3c(N)c(Br)c([C@@H]4CCCNC4)nc23)cn1 (2.5 µM) 0, C[C@@H]1COCCN1c1cc(C2([S@@](C)(=N)=O)CC2)nc(-c2ccnc3[nH]ccc23)n1 [(S)-Ceralasertib] (10 µM) 0, CC#CC(=O)N1CC[C@@H](n2c(=O)n(-c3ccc(Oc4ccccc4)cc3)c3c(N)ncnc32)C1 [Tirabrutinib] (10 µM) 0, C[C@@]1(c2ncncc2F)NC(=O)c2cc(-c3cn[nH]c3)ccc21 (10 µM) 0, COc1ccc(Cl)c(Nc2nc3ccccc3nc2NS(=O)(=O)c2cccc(NC(=O)C(C)(C)N)c2)c1 [Pilaralisib] (10 µM) 0, O=Nc1c(-c2c(O)[nH]c3ccc(I)cc23)[nH]c2ccccc12 [5-Iodo-indirubin-3'-monoxime] (10 µM) 0, COc1cc2nccc(Oc3ccc(NC(=O)NC4CC4)c(Cl)c3)c2cc1C(N)=O [Lenvatinib] (10 µM) 0, C[C@]1(O)CCN(c2nc(N3C[C@H](O)[C@@H](O)C3)cc(C(F)(F)F)c2C#N)C1 (10 µM) 0, Cn1cnc(Cn2ccc3ccc(CNCc4[nH]c5ccccc5c4[C@H]4NC(=O)c5ccc(O)cc54)cc32)c1 (10 µM) 0

biological target: RPS6KA1 (UniProt Q15418); assay: as above; settings: K562; 2-18 h

kinase-Nluc reporter destabilization hit call, inactive:
O=C(CSC1=NCCN1)NC1CCCCCC1 [ICCB-19 (hydrochloride)] (2.5 µM) 0, CCCS(=O)(=O)Nc1ccc(F)c(C(=O)c2c[nH]c3ncc(-c4ccc(Cl)cc4)cc23)c1F [Vemurafenib] (10 µM) 0, Cc1ccc(OCCSc2ncccn2)c(Br)c1 [ZLN024 (hydrochloride)] (10 µM) 0, Nc1ncnc2c1c(-c1ccc(Oc3ccccc3)cc1)nn2C1CCCC1 (2.5 µM) 0, COc1ncc(Cl)cc1S(=O)(=O)Nc1ccc(F)c(C#Cc2cnc(N)nc2)c1F (2.5 µM) 0, Cc1ccc(CNc2ncnc3ccc(-c4ccc(CO)o4)cc23)o1 (10 µM) 0, NC(=O)c1nnc(N[C@@H]2CCCC[C@@H]2N)nc1Nc1cccc2cc[nH]c12 (10 µM) 0, CNc1nc(Nc2ccc(C(=O)N3CCOCC3)cc2OC)nc2[nH]cc(Cl)c12 (2.5 µM) 0, CCNc1nc(Nc2cc(F)c(C(=O)N3CCOCC3)cc2OC)ncc1C(F)(F)F [GNE-7915 (tosylate)] (10 µM) 0, CCN1CCN(Cc2ccc(Nc3ncc(F)c(-c4cc(F)c5nc(C)n(C(C)C)c5c4)n3)nc2)CC1 [Abemaciclib] (2 µM) 0, COCCNc1nc2ccc(C#CC3(O)CCCCC3)cc2n1-c1ccnc(N)n1 (10 µM) 0, OCCn1cc(-c2ccc3c(c2)CC/C3=N\O)c(-c2ccncc2)n1 (10 µM) 0, O=C1N[C@@H](Cc2c[nH]c3ccccc23)C(=O)N2CCC[C@@H]12 [Brevianamide F] (10 µM) 0, Cn1nccc1Nc1nccc(-c2ccn([C@H](CO)c3ccc(Cl)c(F)c3)c(=O)c2)n1 [Ravoxertinib] (10 µM) 0, O=C(NCCN1CCOCC1)c1cc2c(Oc3ccc(NC(=O)C4(C(=O)Nc5ccc(F)cc5)CC4)cc3)ccnc2[nH]1 [Tyrosine kinase inhibitor] (10 µM) 0, COc1cc2c(N3CCN(C(=O)Nc4ccc(OC(C)C)cc4)CC3)ncnc2cc1OCCCN1CCCCC1 [Tandutinib (hydrochloride)] (10 µM) 0
